Measurements as given in US5221732A, “Antimicrobial magainin modified peptides” (priority 1988, dated 1993).
Not every detail of the peptide structures is certain; ends, links or a residue may be inferred. Where a SMILES comes first, the peptide text is derived from it. Where no end group is shown, it is not given here.

Tests used:
[1] = tested on: Escherichia coli (ATCC 25922); assay: Antimicrobial assay, macrodilution broth; type: cell-based; conditions: Escherichia coli (25922); for 50% Minimal inhibitory concentration: 50% inhibition of growth; for 100% Minimal inhibitory concentration: complete inhibition of growth
Protocol: (§1) The antimicrobial activities of magainin analogues were assayed by macrodilution broth procedure of Jones et al (Jones, R. N., Barry, A. L., Gaven, T. L. and Washington, J. A. in "Manual of Clinical Microbiology", Lennette, D. H. Balows, A., Hausler, W. J. and Shadomy, H. J., eds; fourth edition, American Society for Microbiology, Washington, D.C., 1985) with modifications. Different concentrations of peptides were added to 2 ml of trypticase soy broth (BBL) containing the inocula of the test organisms adjusted to 10^5 and 10^6 CFU/ml. Microbial growth was determined by the increase in OD600, after incubation of the tubes at 35° C. for 6-9 h depending on the growth rate. […] The 50% minimal inhibitory concentration was determined from the plots of growth vs concentration of peptide.

[2] = tested on: Klebsiella pneumoniae (ATCC 13883); assay: Antimicrobial assay, macrodilution broth; type: cell-based; conditions: Klebsiella pneumoniae (13883); for 50% Minimal inhibitory concentration: 50% inhibition of growth; for 100% Minimal inhibitory concentration: complete inhibition of growth
Protocol: as §1

[3] = tested on: Pseudomonas aeruginosa (ATCC 27853); assay: Antimicrobial assay, macrodilution broth; type: cell-based; conditions: Pseudomonas aeruginosa (27853); for 50% Minimal inhibitory concentration: 50% inhibition of growth; for 100% Minimal inhibitory concentration: complete inhibition of growth
Protocol: as §1

[4] = tested on: Staphylococcus aureus (ATCC 25923) beta-lactamase(-); assay: Antimicrobial assay, macrodilution broth; type: cell-based; conditions: Staphylococcus aureus (25923) beta-lactamase(-); for 50% Minimal inhibitory concentration: 50% inhibition of growth; for 100% Minimal inhibitory concentration: complete inhibition of growth
Protocol: as §1

[5] = tested on: Staphylococcus aureus (ATCC 29213) beta-lactamase(+); assay: Antimicrobial assay, macrodilution broth; type: cell-based; conditions: Staphylococcus aureus (29213) beta-lactamase(+); for 50% Minimal inhibitory concentration: 50% inhibition of growth; for 100% Minimal inhibitory concentration: complete inhibition of growth
Protocol: as §1

[6] = tested on: Streptococcus agalactiae (ATCC 12386); assay: Antimicrobial assay, macrodilution broth; type: cell-based; conditions: Streptococcus agalactiae (12386); for 50% Minimal inhibitory concentration: 50% inhibition of growth; for 100% Minimal inhibitory concentration: complete inhibition of growth
Protocol: as §1

[7] = tested on: Streptococcus faecalis (ATCC 29212); assay: Antimicrobial assay, macrodilution broth; type: cell-based; conditions: Streptococcus faecalis (29212); for 50% Minimal inhibitory concentration: 50% inhibition of growth; for 100% Minimal inhibitory concentration: complete inhibition of growth
Protocol: as §1

[8] = Circular dichroic measurements; type: physicochemical
[9] = 40% CF3CH2OH (trifluoroethanol)

Row | Molecule | 50% Minimal inhibitory concentration [1] [µg/mL] | 100% Minimal inhibitory concentration [1] [µg/mL] | 50% Minimal inhibitory concentration [2] [µg/mL] | 100% Minimal inhibitory concentration [2] [µg/mL] | 50% Minimal inhibitory concentration [3] [µg/mL] | 100% Minimal inhibitory concentration [3] [µg/mL] | 50% Minimal inhibitory concentration [4] [µg/mL] | 100% Minimal inhibitory concentration [4] [µg/mL] | 50% Minimal inhibitory concentration [5] [µg/mL] | 100% Minimal inhibitory concentration [5] [µg/mL] | 50% Minimal inhibitory concentration [6] [µg/mL] | 100% Minimal inhibitory concentration [6] [µg/mL] | 50% Minimal inhibitory concentration [7] [µg/mL] | 100% Minimal inhibitory concentration [7] [µg/mL] | % structure calculated from CD spectra, alpha-helix ([8]; 50 mM K-phosphate, pH7) [%] | % structure calculated from CD spectra, beta-sheet ([8]; 50 mM K-phosphate, pH7) [%] | % structure calculated from CD spectra, alpha-helix [8, 9] [%] | % structure calculated from CD spectra, beta-sheet [8, 9] [%]
1 | CC[C@H](C)[C@H](NC(=O)CN)C(=O)NCC(=O)N[C@@H](CCCCN)C(=O)N[C@@H](Cc1ccccc1)C(=O)N[C@@H](CC(C)C)C(=O)N[C@@H](Cc1c[nH]cn1)C(=O)N[C@@H](CO)C(=O)N[C@H](C)C(=O)N[C@@H](CCCCN)C(=O)N[C@@H](CCCCN)C(=O)N[C@@H](Cc1ccccc1)C(=O)N[C@H](C)C(=O)N[C@@H](CCCCN)C(=O)N[C@@H](C)C(=O)N[C@@H](Cc1ccccc1)C(=O)N[C@H](C(=O)N[C@H](C)C(=O)N[C@@H](CCC(=O)O)C(=O)N[C@H](C(=O)N[C@@H](CCSC)C(=O)N[C@@H](CC(N)=O)C(=O)N[C@@H](CO)C(N)=O)[C@@H](C)CC)C(C)C [analogue H] (HELM PEPTIDE1{G.I.G.K.F.L.H.S.[dA].K.K.F.[dA].K.A.F.V.[dA].E.I.M.N.S.[am]}$$$$V2.0) | 70 | > 100 | 100 | > 100 | 100 | > 100 | > 100 | > 100 | > 100 | > 100 | 100 | > 100 | > 100 | > 100 |  |  |  | 
2 | GIGKFLHSAKKFGKAFVGEIMNS [Magainin 2, reference compound] | 50 | 100 | 100 | 100 | > 100 | > 100 | > 100 | > 100 | > 100 | > 100 | 50 | 100 | > 100 | > 100 | 0 | 46 | 26 | 38
